According to paper PMC12435897:
These are yes or no findings as the source states them, for the method shown. Binding seen in cells or lysates may run through a third protein. Some entries that bind do so weakly or less than the wild type. Where a sequence is shown, tags or fusion partners need not be part of it.

By UniProt entry, the sequences of proteins in these tests, tags left out. Residues count along the entry.
UniProt P09341, residues 35-107: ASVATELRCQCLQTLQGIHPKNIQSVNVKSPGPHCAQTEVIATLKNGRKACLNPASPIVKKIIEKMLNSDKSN

T1: ACKR1 Asp42 variant N-terminally fused to Nanoluciferase (human) (UniProt Q16570)
T1 sequence: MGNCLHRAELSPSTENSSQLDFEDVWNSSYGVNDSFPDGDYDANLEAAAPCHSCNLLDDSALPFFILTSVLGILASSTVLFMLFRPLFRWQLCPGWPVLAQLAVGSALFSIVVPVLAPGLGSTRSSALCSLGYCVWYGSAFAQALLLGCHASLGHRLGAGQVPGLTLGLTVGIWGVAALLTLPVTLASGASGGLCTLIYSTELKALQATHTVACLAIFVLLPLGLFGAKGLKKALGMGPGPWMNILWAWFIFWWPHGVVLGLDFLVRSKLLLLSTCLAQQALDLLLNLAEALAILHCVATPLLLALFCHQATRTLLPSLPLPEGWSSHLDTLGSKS

T2: ACKR1 Gly42 variant N-terminally fused to Nanoluciferase (human) (UniProt Q16570)
T2 sequence: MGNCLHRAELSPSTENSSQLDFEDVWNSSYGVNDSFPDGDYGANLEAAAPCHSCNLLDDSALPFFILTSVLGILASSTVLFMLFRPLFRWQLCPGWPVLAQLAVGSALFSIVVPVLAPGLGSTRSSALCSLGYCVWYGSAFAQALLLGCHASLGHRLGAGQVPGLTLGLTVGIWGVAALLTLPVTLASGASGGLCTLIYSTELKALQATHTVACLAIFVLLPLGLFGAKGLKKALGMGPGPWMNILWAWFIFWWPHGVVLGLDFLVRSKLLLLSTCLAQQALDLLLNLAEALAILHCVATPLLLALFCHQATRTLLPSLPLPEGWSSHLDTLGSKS


Assays:
[1] = molecular target: T1, ACKR1 Asp42 variant N-terminally fused to Nanoluciferase (human); experiment: FRET or BRET; NanoBRET: HEK293T cells with Nanoluciferase-ACKR1 variant (1 × 10^5 cells per well) incubated 2 h on ice with AZDye 488-labelled chemokines, 0.1 nM to 1 mM as printed; coelenterazine H; three-parameter Hill fit; only the binder purified
[2] = molecular target: T2, ACKR1 Gly42 variant N-terminally fused to Nanoluciferase (human); experiment: as above

binding [1]	binding [2]	Molecule
binds	binds	AZDye 488-CXCL1 (from UniProt P09341 35-107) (ligand)
binds	binds	AZDye 488-CXCL11 (ligand, UniProt O14625 22-94) FPMFKRGRCLCIGPGVKAVKVADIEKASIMYPSNNCDKIEVIITLKENKGQRCLNPKSKQARLIIKKVERKNF
